The text below walks through data of paper PMC5930937.

By UniProt entry, the sequences of proteins in these tests, tags left out.
UniProt Q62261: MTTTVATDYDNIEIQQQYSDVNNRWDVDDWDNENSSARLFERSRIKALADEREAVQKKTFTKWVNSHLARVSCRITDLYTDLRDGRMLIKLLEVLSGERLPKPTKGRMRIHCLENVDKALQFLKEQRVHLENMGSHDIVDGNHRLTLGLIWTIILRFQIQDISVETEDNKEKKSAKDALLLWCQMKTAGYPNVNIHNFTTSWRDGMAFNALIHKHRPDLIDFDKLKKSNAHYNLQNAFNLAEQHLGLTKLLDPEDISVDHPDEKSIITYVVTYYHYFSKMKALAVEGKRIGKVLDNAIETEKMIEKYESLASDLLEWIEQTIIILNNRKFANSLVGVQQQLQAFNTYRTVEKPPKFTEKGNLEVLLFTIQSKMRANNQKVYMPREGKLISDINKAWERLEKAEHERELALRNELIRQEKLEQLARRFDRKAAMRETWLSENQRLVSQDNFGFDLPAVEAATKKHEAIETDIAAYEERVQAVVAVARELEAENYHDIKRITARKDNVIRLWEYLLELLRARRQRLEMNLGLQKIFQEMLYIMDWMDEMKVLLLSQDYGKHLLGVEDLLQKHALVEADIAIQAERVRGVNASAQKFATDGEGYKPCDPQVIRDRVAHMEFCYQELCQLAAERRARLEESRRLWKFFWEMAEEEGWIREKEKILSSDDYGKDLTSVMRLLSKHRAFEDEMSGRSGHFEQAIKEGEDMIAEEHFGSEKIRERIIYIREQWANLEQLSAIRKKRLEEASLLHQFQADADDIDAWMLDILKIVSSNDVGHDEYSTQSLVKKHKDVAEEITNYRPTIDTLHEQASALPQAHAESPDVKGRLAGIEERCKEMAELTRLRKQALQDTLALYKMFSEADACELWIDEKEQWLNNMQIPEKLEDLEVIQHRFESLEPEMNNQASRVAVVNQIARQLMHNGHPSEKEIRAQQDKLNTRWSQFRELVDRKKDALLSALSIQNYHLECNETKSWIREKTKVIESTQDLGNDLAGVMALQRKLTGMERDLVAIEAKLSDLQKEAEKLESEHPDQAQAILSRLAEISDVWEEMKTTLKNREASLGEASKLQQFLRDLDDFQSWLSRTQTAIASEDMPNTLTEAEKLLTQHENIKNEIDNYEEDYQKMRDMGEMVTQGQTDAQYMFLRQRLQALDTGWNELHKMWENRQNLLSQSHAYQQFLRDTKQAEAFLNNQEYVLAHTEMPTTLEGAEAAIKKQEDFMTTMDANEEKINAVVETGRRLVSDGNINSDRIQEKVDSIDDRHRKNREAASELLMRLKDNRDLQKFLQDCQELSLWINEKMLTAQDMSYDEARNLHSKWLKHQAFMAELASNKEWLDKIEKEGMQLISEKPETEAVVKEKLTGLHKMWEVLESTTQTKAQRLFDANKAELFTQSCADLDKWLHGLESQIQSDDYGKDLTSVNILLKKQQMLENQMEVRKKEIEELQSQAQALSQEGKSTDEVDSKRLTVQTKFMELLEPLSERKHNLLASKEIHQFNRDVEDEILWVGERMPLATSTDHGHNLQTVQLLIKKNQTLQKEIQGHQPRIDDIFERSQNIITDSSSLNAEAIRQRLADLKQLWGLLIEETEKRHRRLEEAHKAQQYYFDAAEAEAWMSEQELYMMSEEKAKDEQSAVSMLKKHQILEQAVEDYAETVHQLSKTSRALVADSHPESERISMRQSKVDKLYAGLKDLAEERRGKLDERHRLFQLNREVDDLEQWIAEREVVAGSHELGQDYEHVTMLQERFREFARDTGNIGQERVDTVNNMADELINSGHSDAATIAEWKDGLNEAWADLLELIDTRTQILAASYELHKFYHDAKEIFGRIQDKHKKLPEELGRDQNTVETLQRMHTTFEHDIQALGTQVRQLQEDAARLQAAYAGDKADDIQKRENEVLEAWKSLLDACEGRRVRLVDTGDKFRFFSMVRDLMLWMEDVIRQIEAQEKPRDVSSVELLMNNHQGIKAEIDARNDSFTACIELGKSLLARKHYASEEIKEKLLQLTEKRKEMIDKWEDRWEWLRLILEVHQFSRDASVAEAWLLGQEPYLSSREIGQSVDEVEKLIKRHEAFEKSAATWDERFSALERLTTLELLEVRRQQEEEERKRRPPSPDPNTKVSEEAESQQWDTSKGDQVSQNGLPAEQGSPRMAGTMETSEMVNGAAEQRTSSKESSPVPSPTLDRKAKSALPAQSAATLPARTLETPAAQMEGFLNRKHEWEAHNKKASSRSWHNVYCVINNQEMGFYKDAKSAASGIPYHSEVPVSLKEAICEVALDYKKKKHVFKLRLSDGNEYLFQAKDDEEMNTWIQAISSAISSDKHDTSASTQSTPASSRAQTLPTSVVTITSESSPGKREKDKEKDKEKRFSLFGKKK

Test [1] addresses T1, Human biotin-Cav3.2-CT 1860–1884 peptide (human).
T1 sequence (peptide, covalently linked to a C-terminal biotin): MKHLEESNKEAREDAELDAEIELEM
The test can be described thus: affinity purification with mass spectrometry; biotinylated peptide (5 μg) as bait with mouse brain lysate (500 μg, precleared with neutravidin beads), 2 h at 4 °C, 50 mM Tris pH 7.6, 150 mM NaCl, 0.2% Triton X-100, 0.2% NP40, 10 mM EDTA, 10 mM EGTA; SDS-PAGE, Coomassie, bands excised, MALDI/TOF-MS; only the target purified.

Test [2] concerns the target T2, biotin-Cav3.2-CT scramble peptide.
T2 sequence (peptide, covalently linked to a C-terminal biotin): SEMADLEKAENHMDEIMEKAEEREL
The test is described as above.

Results are given in words; binding and its absence hold for the method and conditions named. In cells and extracts the contact can be indirect. A yes stands for co-enrichment or nearness to the bait. Other partners may have been found. For some of these results: No binding means not detected with the bait.

For the substance “spectrin-αII (SPTAN1), mouse brain (from UniProt P16546 1-2472)”, the values for the binding result in test [1] and in test [2] were “binds” and “no binding (tested: 5 μg peptide)”, respectively.
Taken in the same sequence, the figures for “spectrin-β (SPTBN1), mouse brain (from UniProt Q62261 1-2363)” were “binds” and “no binding (tested: 5 μg peptide)”.
